Measurements as given in patent publication US20190276557A1 (APROGEN KIC, published 2019).
These are yes or no findings as the source states them, for the method shown. For some of these results: Binding seen in cells or lysates may run through a third protein. Some binding calls cover weakened binding; strength is not graded here.

By UniProt entry, the sequences of proteins in these tests, tags left out. Where a name states a change or a piece, a line headed by the entry shows the natural chain unless it says otherwise.
UniProt O43570: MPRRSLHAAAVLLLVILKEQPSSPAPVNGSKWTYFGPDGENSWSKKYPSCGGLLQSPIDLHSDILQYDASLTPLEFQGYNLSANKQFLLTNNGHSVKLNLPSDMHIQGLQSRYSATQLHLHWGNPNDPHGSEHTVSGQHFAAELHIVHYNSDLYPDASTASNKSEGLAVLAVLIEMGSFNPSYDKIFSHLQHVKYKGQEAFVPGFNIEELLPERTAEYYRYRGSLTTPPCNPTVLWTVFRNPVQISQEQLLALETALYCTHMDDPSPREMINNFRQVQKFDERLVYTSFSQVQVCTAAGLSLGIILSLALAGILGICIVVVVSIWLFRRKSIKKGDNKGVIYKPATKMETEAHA

How the values were obtained:
[1] = target: recombinant protein carbonic anhydrase 12 (R&D Systems) (Homo sapiens (Human)) (UniProt O43570); assay: ELISA on coated recombinant CA12
[2] = target: recombinant protein carbonic anhydrase 12 (R&D Systems) (Homo sapiens (Human)) (UniProt O43570); assay: Western blot of recombinant CA12
[3] = target: recombinant protein carbonic anhydrase 12 (R&D Systems) (Homo sapiens (Human)) (UniProt O43570); assay: ELISA on coated recombinant CA12 (100 ng/well)
[4] = target: recombinant protein carbonic anhydrase 12 (R&D Systems) (Homo sapiens (Human)) (UniProt O43570); assay: Western blot of boiled recombinant CA12
[5] = target: carbonic anhydrase 12 isoform 1 isolated from A549 cell lysate (human) (UniProt O43570); assay: antibody affinity column on A549 lysate, LC-MS/MS of the eluted antigen
[6] = target: recombinant protein carbonic anhydrase 12 (R&D Systems) (Homo sapiens (Human)) (UniProt O43570); assay: sandwich ELISA on recombinant CA12
[7] = target: carbonic anhydrase 12 (CA-XII) on the surface of human tumour cell lines (human) (UniProt O43570); assay: flow cytometry on MDAMB-231 cells

Measured: binding

B1: 27B6 monoclonal antibody (mouse, hybridoma KCLRF-BP-00280) (antibody, mouse IgG1, V domains shown)
VH: QVQLQQSGPQLVWPGASVKISCNTSGYSFTNYWIHWVKQRPGQGLEWIGMIDPSDSETRLNQKFKDKTTLTVDRSSSTAYMQVSSSTSEDSAVYYCTRGIRGGYYAMDYWGQGTSVTVSS
VL: DIQMTQTTSSLSASLGDRVTISCRASQDISNYLNWYQQKPEGTVKLLIYYTSRLHSGVPSRFSGSGSGTDYSLTISNLEQEDIATYFCQQGDTLPRTFGEGTKLEIR
not listed: [7]
binds: all other assays above

B2: DNP004 humanized antibody (antibody, V domains shown)
VH: EVQLVESGGGLVQPGGSLRLSCAASGYSYTDYNIYWVRQAPGKGLEWVGYIDPANGDTTYNQKFKGRATISVDKSKNTAYLQMNSLRAEDTAVYYCSRPIYYGAYWYFDVWGQGTLVTVSS
VL: DIQMTQSPSSLSASVGDRVTITCRASSSVTYMHWYQQKPGKAPKPWIYGTSRLVSGVPSRFSGSGSGTDFTLTISSLQPEDFATYYCQQWSSNPLTFGQGTKVEIK
binds: [7]
